The source of these data is patent US7851445B2, “Angiogenic heparin-binding epitopes, peptide amphiphiles, self-assembled compositions and related methods of use” (Northwestern University, priority 2005, dated 2010).

The nature of the data set: Isothermal titration calorimetry of heparin into HBPA solution. The data set is classed as binding. As to conditions: ITC, Table 3G. From the text:
Isothermal titration calorimetry was used to titrate increments of heparin independently into both the HBPAs and measured the heat released upon binding as a function of the molar ratio. The data obtained was integrated and fitted to a nonlinear function as previously described (Fromm, J. R., et al, “Differences in the Interaction of Heparin with Arginine and Lysine and the Importance of These Basic-Amino-Acids in the Binding of Heparin to Acidic Fibroblast Growth-Factor” Arch. Biochem. Biophys. 323 (1997) 279) to obtain an association constant of 10^7 in both cases (see FIGS. 3E and 3F). Despite similarity in their binding constants, the binding interaction of HBPA-1 and HBPA-2 were energetically very different. […] Such results can be explained with reference to their respective structures. HBPA-1 has hydrophobic residues on the periphery of its peptide chain and the increase in entropy is possibly due to displacement of solvent water molecules from these residues upon heparin interaction.
Characterization of the self-assembly. […] The images were analyzed using the Leica LCS imaging software. […] A frequency sweep experiment was performed at 3% strain with a ten-minute wait time (both determined by independently performing an amplitude sweep and a time strain experiment) to obtain 17 data points between angular frequencies of 0.1 to 10 rad/s. […]
(ITC needs no label: the signal is the heat of the interaction.)

Where a SMILES comes first, the peptide text is derived from it. The star is where a group is joined. Palmitoyl = CCCCCCCCCCCCCCCC(=O)*

In the case of `CCCCCCCCCCCCCCCC(=O)N[C@@H](C)C(=O)N[C@@H](C)C(=O)N[C@@H](C)C(=O)N[C@@H](C)C(=O)NCC(=O)NCC(=O)NCC(=O)N[C@@H](CC(C)C)C(=O)N[C@@H](CC(C)C)C(=O)NCC(=O)N[C@@H](C)C(=O)N[C@@H](CCCNC(=N)N)C(=O)N[C@@H](CCCCN)C(=O)N[C@@H](CCCCN)C(=O)N[C@@H](CCCCN)C(N)=O` [HBPA-2] (Palmitoyl-AAAAGGGLLGARKKK-NH2), the “thermodynamic driving force of heparin interaction” value was “predominantly enthalpic”.

In the case of `CCCCCCCCCCCCCCCC(=O)N[C@@H](C)C(=O)N[C@@H](C)C(=O)N[C@@H](C)C(=O)N[C@@H](C)C(=O)NCC(=O)NCC(=O)NCC(=O)N[C@@H](CC(C)C)C(=O)N[C@@H](CCCNC(=N)N)C(=O)N[C@@H](CCCCN)C(=O)N[C@@H](CCCCN)C(=O)N[C@@H](CC(C)C)C(=O)NCC(=O)N[C@@H](CCCCN)C(=O)N[C@@H](C)C(N)=O` [HBPA-1] (Palmitoyl-AAAAGGGLRKKLGKA-NH2), the “thermodynamic driving force of heparin interaction” value is “predominantly driven by entropic changes”.
